No constants are given. Whether binding was seen depends on the method and setting. Binding seen in cells or lysates may run through a third protein. Some results given as binding are weak or reduced against the parent protein; the word gives no strength. For some assays here: Tags and fused reporters may be left off the sequences shown.

Chains of the proteins cited; added tags and fusions are not shown. Residues count along the entry.
UniProt O00206, residues 24-839: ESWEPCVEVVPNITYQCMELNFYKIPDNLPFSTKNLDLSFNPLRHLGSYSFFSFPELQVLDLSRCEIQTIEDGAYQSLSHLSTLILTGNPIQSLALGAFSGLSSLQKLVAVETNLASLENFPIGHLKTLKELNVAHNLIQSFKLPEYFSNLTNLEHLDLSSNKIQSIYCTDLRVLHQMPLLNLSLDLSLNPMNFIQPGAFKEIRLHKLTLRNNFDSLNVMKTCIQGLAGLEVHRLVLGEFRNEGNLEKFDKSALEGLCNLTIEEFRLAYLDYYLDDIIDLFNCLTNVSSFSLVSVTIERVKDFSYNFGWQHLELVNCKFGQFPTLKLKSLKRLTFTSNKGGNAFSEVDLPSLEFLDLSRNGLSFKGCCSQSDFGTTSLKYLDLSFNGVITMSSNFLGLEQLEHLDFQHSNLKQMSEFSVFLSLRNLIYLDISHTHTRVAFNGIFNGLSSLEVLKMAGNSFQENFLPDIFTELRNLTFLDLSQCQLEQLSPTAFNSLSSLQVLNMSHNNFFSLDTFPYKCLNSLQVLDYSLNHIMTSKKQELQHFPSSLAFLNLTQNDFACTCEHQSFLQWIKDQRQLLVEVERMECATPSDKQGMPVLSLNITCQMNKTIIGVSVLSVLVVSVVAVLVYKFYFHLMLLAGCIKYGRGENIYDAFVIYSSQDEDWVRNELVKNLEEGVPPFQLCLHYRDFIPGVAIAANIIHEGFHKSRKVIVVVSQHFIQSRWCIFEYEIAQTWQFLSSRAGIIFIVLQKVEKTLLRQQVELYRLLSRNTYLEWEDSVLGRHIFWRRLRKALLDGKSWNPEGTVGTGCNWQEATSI
UniProt O15455, residues 24-904: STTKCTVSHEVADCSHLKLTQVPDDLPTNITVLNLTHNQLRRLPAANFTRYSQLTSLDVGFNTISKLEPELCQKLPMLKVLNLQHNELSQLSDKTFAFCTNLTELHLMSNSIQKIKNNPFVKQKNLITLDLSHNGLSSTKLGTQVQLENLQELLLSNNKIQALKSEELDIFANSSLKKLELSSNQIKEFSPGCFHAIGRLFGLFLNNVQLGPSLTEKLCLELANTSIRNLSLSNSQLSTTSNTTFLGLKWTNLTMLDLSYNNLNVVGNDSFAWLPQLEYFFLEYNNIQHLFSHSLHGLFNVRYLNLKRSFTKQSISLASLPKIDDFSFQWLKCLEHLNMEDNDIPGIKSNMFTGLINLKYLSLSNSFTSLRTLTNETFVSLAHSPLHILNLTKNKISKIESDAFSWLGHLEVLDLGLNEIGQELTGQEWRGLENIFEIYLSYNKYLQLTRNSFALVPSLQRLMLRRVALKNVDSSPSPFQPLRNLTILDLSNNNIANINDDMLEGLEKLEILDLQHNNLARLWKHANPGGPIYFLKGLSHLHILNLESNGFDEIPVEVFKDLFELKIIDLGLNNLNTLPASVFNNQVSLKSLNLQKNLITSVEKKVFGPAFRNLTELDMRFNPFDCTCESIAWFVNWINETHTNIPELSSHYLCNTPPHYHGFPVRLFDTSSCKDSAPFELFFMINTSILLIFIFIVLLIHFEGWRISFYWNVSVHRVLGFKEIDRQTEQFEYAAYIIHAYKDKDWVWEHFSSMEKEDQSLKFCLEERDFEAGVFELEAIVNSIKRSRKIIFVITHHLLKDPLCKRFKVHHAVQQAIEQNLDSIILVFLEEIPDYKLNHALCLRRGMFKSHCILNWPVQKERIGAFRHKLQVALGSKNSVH
UniProt P09731, residues 18-225: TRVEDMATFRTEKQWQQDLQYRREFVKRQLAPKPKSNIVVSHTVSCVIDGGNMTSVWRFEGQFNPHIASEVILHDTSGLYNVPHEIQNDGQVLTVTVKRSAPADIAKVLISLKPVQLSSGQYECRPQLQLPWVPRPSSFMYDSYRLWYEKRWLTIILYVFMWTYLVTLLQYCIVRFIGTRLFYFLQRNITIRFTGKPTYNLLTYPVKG
UniProt P09730, residues 22-227: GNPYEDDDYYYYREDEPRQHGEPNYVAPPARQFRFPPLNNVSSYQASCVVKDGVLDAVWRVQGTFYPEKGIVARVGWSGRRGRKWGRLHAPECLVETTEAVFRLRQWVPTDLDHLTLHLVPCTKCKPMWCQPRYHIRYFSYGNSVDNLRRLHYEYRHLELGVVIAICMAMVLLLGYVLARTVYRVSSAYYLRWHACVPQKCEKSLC
UniProt P60468: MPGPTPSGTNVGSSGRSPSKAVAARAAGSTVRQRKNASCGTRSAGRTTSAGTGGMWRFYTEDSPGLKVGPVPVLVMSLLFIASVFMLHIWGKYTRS
UniProt P09727, residues 18-215: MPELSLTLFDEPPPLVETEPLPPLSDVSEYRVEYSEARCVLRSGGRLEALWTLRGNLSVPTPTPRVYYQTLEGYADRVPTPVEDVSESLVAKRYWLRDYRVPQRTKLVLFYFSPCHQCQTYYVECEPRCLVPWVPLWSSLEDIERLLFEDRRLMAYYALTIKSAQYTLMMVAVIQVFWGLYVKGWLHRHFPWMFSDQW

For one assay, the target named is T1, UNC93B1-GFP (UniProt Q9H1C4).
T1 sequence: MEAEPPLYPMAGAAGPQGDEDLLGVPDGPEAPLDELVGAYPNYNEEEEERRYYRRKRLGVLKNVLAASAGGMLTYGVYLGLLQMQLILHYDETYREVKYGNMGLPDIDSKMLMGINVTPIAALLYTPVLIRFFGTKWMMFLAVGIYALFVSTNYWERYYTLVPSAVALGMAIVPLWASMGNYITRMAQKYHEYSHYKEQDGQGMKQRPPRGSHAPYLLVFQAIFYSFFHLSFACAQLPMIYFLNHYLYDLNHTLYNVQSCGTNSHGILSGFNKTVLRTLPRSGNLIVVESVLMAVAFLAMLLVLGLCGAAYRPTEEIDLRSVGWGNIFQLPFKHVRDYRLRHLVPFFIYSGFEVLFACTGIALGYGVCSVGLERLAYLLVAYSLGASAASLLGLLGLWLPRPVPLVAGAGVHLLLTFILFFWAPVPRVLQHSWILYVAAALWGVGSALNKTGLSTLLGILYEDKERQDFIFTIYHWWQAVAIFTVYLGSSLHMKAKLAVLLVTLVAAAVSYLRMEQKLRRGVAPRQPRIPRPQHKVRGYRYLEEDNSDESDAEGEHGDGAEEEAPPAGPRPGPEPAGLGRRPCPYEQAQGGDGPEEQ
Nature of the assay: co-IP; HeLa expressing UNC93B1-GFP transfected with HA-US8; lysis in 1% NP-40; samples heated without boiling.

Assay [1] addresses endogenous TLR4 (human (endogenous in HeLa)) (UniProt O00206). Nature of the assay: co-IP; HeLa transfected with HA-US7 (20 μM MG132, 4 h) or HA-US8 (100 μM chloroquine, 4 h); lysis in 1% NP-40; immunoprecipitated with anti-TLR3 or anti-TLR4, blotted with anti-HA; washes 0.1% NP-40.
In assay [2] the target is endogenous TLR3 (human (endogenous in HeLa)) (UniProt O15455). The assay is described as above.
The target in assay [3] is T2, endogenous Derlin-1 (human (endogenous in HEK 293T)) (UniProt Q9BUN8).
T2 sequence: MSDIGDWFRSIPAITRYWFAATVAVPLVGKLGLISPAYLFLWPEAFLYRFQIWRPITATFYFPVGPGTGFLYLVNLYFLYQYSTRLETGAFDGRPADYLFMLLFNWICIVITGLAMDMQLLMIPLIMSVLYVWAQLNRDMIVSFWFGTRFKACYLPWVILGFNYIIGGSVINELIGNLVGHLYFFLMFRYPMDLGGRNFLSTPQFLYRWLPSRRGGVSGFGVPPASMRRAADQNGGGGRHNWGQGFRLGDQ
Nature of the assay: co-IP; lysis in 1% digitonin, washes 0.1% digitonin; HEK 293T lysates immunoprecipitated with anti-HA and anti-Derlin-1, blotted with anti-Sec61β, anti-Derlin-1 or anti-HA (Fig. 3c); cells and antibodies of Supplementary Figs 3d and 6b not shown.

The target of assay [4] is HA-tagged HCMV US7 (human cytomegalovirus (HCMV)) (UniProt P09731). Described as above.
The target of assay [5] is T3, HA-US2 (human cytomegalovirus (HCMV)) (UniProt P09713).
T3 sequence: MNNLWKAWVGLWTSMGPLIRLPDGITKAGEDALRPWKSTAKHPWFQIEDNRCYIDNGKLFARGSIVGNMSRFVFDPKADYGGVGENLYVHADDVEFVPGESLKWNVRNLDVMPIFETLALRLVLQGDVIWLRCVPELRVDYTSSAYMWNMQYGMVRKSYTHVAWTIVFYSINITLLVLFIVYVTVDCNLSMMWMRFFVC
Described as above.

For assay [6], the target named is GFP-US7 (human cytomegalovirus (HCMV)) (UniProt P09731). The assay is described as above.
The target in the next assay is Myc-tagged TLR3 (UniProt O15455). Briefly: co-IP; TLR3-Myc-expressing HeLa transfected with UNC93B1-GFP and empty vector or HA-US8, 100 μM chloroquine; immunoprecipitated with anti-Myc, blotted with anti-GFP.

Take “HA-tagged HCMV US8 (from UniProt P09730 22-227)”: the binding entry (in the assay with UNC93B1-GFP; in assay [1]; in assay [2]) was “binds” throughout.
For “HA-tagged HCMV US7 (from UniProt P09731 18-225)”, the binding result in assay [3], in assay [1] and in assay [2] was “binds” each time.
With “endogenous Sec61β (from UniProt P60468 1-96)”, the binding result in assay [4], in assay [5] and in assay [6] was “binds” in each case.
Take HA-US11 (from UniProt P09727 18-215): the binding entry in assay [3] is reported as “binds”.

B1: UNC93B1-GFP (protein, UniProt Q9H1C4 1-597)
chain: MEAEPPLYPMAGAAGPQGDEDLLGVPDGPEAPLDELVGAYPNYNEEEEERRYYRRKRLGVLKNVLAASAGGMLTYGVYLGLLQMQLILHYDETYREVKYGNMGLPDIDSKMLMGINVTPIAALLYTPVLIRFFGTKWMMFLAVGIYALFVSTNYWERYYTLVPSAVALGMAIVPLWASMGNYITRMAQKYHEYSHYKEQDGQGMKQRPPRGSHAPYLLVFQAIFYSFFHLSFACAQLPMIYFLNHYLYDLNHTLYNVQSCGTNSHGILSGFNKTVLRTLPRSGNLIVVESVLMAVAFLAMLLVLGLCGAAYRPTEEIDLRSVGWGNIFQLPFKHVRDYRLRHLVPFFIYSGFEVLFACTGIALGYGVCSVGLERLAYLLVAYSLGASAASLLGLLGLWLPRPVPLVAGAGVHLLLTFILFFWAPVPRVLQHSWILYVAAALWGVGSALNKTGLSTLLGILYEDKERQDFIFTIYHWWQAVAIFTVYLGSSLHMKAKLAVLLVTLVAAAVSYLRMEQKLRRGVAPRQPRIPRPQHKVRGYRYLEEDNSDESDAEGEHGDGAEEEAPPAGPRPGPEPAGLGRRPCPYEQAQGGDGPEEQ
B1: the binding entry in the assay with Myc-tagged TLR3 is “binds”.

(Values after paper PMC6789044.)
